This is an account of results in the supplement of paper PMC10338343.

± gives the standard deviation. Only a part is listed here, and it is no random draw. Many of these values have a large error.

The test relates to MIWI (PIWIL1) piRISC loaded with Kctd7 piRNA (30 nt). The test is described as follows: pre-steady-state target cleavage rate (min^-1); MIWI and MILI are mouse PIWI proteins and EfPiwi is from a freshwater sponge; tags in brackets are library labels; higher = faster piRNA-guided slicing of the target. The note with it: guide: Kctd7 piRNA 5'p-UGUUAAUCUCUCAGAGAAGGUGACAGUGAU; auxiliary factor: 500 nM mouse GTSF1. The gist of the method:
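Sequencing of uncleaved targets, normalised to depth and to weakly complementary targets, was the readout of this Cleave-'n-Seq assay. A transcribed, DNA-blocked target RNA library (0.1 nM) was mixed with 1 nM active affinity-purified piRISC carrying one synthetic guide, with or without 500 nM GTSF1 partner protein, in HEPES–potassium acetate buffer at 33 °C for 0–8 or 0–960 min. Three trials were pooled, k3 was capped at 0.0001 min^-1, and a burst-and-steady-state fit gave the pre-steady-state cleavage rate.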
For the sequence AUCACUGUCACCUUCUCUCUCAGAUUAACA, the “pre-steady-state target cleavage rate” value stood at 0.00325 ± 0.0044.
For the sequence “UAGACUGUCACCUUCUCACUCUCUAAUUGA [g14:g27:cont:t1A]”, the “pre-steady-state target cleavage rate” value was determined as 0.000333 ± 0.011.
Turning to UAGACUCUCACCUUCUCUGAGAGAUUUUGA, the “pre-steady-state target cleavage rate” value amounted to 0.0479 ± 0.011.
Under UAGUGACAGUCCUUCUCUGAGUGAAUAACA stands 0.000368 ± 0.012; under UAGUCUGUGUCCUUCUCUGAGAGAUUUUGA, 0.00211 ± 0.0042.
Under UUCACUGUACACCUUCUCUGAGAGAUUAACA stands 0.655 ± 0.033.
Under UAGUGAGUCACCUUCAGUGAGAGAUUUUGA stands 0.0022 ± 0.0071; under UAGUGUGUCAGGUUCUCUGAGAGAUUUUGA, 0.00175 ± 0.0081; under UAGUGUGUCACCUUCUCUGACUCAUUAUGA, 0.000869 ± 0.014.
Turning to UAGUGACAGACGAUCUCUGAGAGAUUAUGA, the “pre-steady-state target cleavage rate” value was 0.000176 ± 0.037.
For “UACACUGUCACCUUCUCUGAGAGAUAUUGA [g6:g28:cont:t1A]”, the “pre-steady-state target cleavage rate” value amounted to 0.0488 ± 0.017.
Under UAGUGUGUCACCUUCUCACAGAGAUUAAGA stands 0.0014 ± 0.0092.
Under UUGACUGUCACCUUCUCUGAGACAUUAACA stands 0.0684 ± 0.0093; under AUGACUGUCACCUUCUCUGAGAGAUUAACA, 0.771 ± 0.037; under UAGUGACUCACCUUCUCUGAGUGAUUUUGA, 0.000866 ± 0.0084.
As for UAGUGACAGUGGAUCUCUGAGCGAUUAACA, the “pre-steady-state target cleavage rate” value was 0.000242 ± 0.026.
Under UAGUGACAGUGGAACUCUGAGACAUUAUCA stands 0.00108 ± 0.015; under UAGACUGUCACCUUCUCUGACAGAUUAUGA, 0.000597 ± 0.0067.
For UAGUGACAGACCUUCUCACAGAGAUUAACA, the “pre-steady-state target cleavage rate” value is 0.00132 ± 0.01.
Under UAGUGACAGUGGAACUCUGAGUGUUUAACA stands 0.000518 ± 0.02.
In the case of UAGUGACUGACCUUCUCUGAGAGAUAUUGA, the “pre-steady-state target cleavage rate” value came out at 0.000915 ± 0.0097.
Under UAGUGACAGUGGAAGAGAGACACAUUAACA stands 0.000265 ± 0.025; under UAGUGACAGUGCUUCUGAGAGAGAUUAACA, 0.000291 ± 0.015; under UAGUGACAGUCCUUCUCGUGAGAGAUUAACA, 0.000937 ± 0.0096.
Under UAGUGACAGUGGAAGACUGAGAGAUUCACA stands 0.000155 ± 0.043; under UAGUGACUCACCUUCUCUGACUCAUUAACA, 0.00155 ± 0.0054; under UAGACUGUCACCUUCUCUCUCAGAUAUUGA, 0.000268 ± 0.017.
As to UAGAAUGUCACCUUCUCUGAGAGAUUAACA, the “pre-steady-state target cleavage rate” value turned out to be 0.652 ± 0.038.
Turning to UAGUGACAGUGCUUCUCAGAGAGUUUAACA, the “pre-steady-state target cleavage rate” value was 0.00103 ± 0.0093.
Take UAGUCUAGUCACCUUCUCUGAGAGAUUAACA: the “pre-steady-state target cleavage rate” value worked out at 0.67 ± 0.035.
Under UUCACUGUCACCAUUCUCUGAGAGAUUAACA stands 0.725 ± 0.029.
Under UAGUGAGUCACCUUCUCUGAGACUAUAUGA stands 0.00163 ± 0.0059; under UAGUGUGUGUCCUUCUCUGAGAGAUAUUGA, 0.00237 ± 0.0046; under UAGUGACAGUCCUUCUCUGAGAGAAUAUCA, 0.000578 ± 0.0086.
Under UAGUCUGUCACCAACUCUGAGAGAUAUUGA stands 0.000402 ± 0.011; under UAGUGACAGUCCUUCUCUGACAGAUAAACA, 0.000567 ± 0.0096; under UAGUGAGUCACCUUCUCUGUCUGAUUAAGA, 0.00159 ± 0.011.
For the sequence UAGUGUGUCACCUUCAGUGAGAGAUAUUGA, the “pre-steady-state target cleavage rate” value was found to be 0.00269 ± 0.005.
Under UAGUGACAGUCCUUCUCUGUGAGAAUAACA stands 0.000819 ± 0.0067; under UAGUGACAGUCCUUCUCUGAGAGUAAAUGA, 0.000152 ± 0.032; under UACACUGUCACCUUCUCUGACUGAUUAAGA, 0.00227 ± 0.0049.
Under UAGUGACAGUGGAAGAGACAGAGAAAUACA stands 0.000108 ± 0.041.
For the sequence UACACUGUCACCAACUCUGAGAGAUUUUGA, the “pre-steady-state target cleavage rate” value turned out to be 0.00105 ± 0.011.
Under UAGUCUGUCACCUUCUGUGACAGAUUAACA stands 0.00236 ± 0.0059; under UAGUCUGUCACCUUCUCUGAGUCAUUAUGA, 0.00142 ± 0.0046.
In the case of UACACUGUCACCUUCUCUGACUCAUUAACA, the “pre-steady-state target cleavage rate” value is 0.004 ± 0.004.
Take “UACACUGUCACCUUCUGACUCUCUAAUUGA [g15:g28:cont:t1A]”: the “pre-steady-state target cleavage rate” value amounted to 0.0007 ± 0.015.
As to UAGUGACUCACCUUCUCUGAGAGAAUAUGA, the “pre-steady-state target cleavage rate” value turned out to be 0.00356 ± 0.0045.
For the sequence UAGUGACAGACCUUCUCUGUGAGAUUAUGA, the “pre-steady-state target cleavage rate” value was determined as 0.00111 ± 0.0081.
In the case of UAGUGACAGACCUUCUCUGAGAGUUUAUGA, the “pre-steady-state target cleavage rate” value worked out at 0.00125 ± 0.0069.
With UAGUGACAGACCUUCUCUGUGUGAUUAACA, the “pre-steady-state target cleavage rate” value is 0.00321 ± 0.0045.
Under UAGUGACAGAGCUUCUCUCAGAGAUUAACA stands 0.0015 ± 0.0058; under AUCACUCAGACCUUCUCUGAGAGAUUAACA, 0.433 ± 0.024.
As to UAGACUGUCACCAAGUCUGAGAGAUUUUGA, the “pre-steady-state target cleavage rate” value was 0.000371 ± 0.011.
For UAGACUGUCACCUUCUCUCAGUGAUUAACA, the “pre-steady-state target cleavage rate” value was found to be 0.00243 ± 0.003.
Regarding UAGUGUGUCACCAAGUCUGAGAGAUUAAGA, the “pre-steady-state target cleavage rate” value came out at 0.000328 ± 0.021.
Under UACACUGUCACCUUGACUGAGAGAUAUUGA stands 0.00367 ± 0.0056.
In the case of UAGUGUGUCACCUUCUCUCUGAGAUUAAGA, the “pre-steady-state target cleavage rate” value was determined as 0.00301 ± 0.0051.
Under UAGUGACAGUCCUUCUCUGAGAAUUAACA stands 0.00131 ± 0.0049; under UAGUCUGAGUCCUUCUCUGAGAGAUUUUGA, 0.0013 ± 0.0054; under AACACUGUCAGCUUCUCUGAGAGAUUAACA, 0.753 ± 0.039.
In the case of UAGUGACACACCAUCUCUGAGAGAUUUUGA, the “pre-steady-state target cleavage rate” value came to 0.00147 ± 0.0073.
As to UAGACUGUCACGAUCUCUGAGAGAUUUUGA, the “pre-steady-state target cleavage rate” value was determined as 0.000147 ± 0.036.
Under UAGUGAGUCUGCUUCUCUGAGAGAUAUUGA stands 0.000514 ± 0.011.
As to UAGUGACAGACCUUGUCUGAGAGAUUAUGA, the “pre-steady-state target cleavage rate” value was 0.000551 ± 0.016.
Under UAGUGACAGACCUUCUCUGAGACGAUUAACA stands 0.00148 ± 0.0096; under UACACUGUCACGAACUCUGAGAGAUUAUGA, 0.000139 ± 0.038.
Regarding AUCACUGUCACCUUCUCUGAGUCAUAUUGA, the “pre-steady-state target cleavage rate” value is 0.00182 ± 0.005.
Under UAGUGACAGACCUACUCAGAGAGAUUAACA stands 0.00112 ± 0.0096; under UAGACUGUCACCUUGAGUGAGAGAUAUUGA, 0.00023 ± 0.024; under UAGUGACAGACCUUCAGAGAGAGAUUAUGA, 0.000486 ± 0.021.
